Reference: the supplement of paper PMC6078165

Test system: Hs578T
Test: relative JC-1 red fluorescence (viability) vs pre-drug, coculture with fibroblast (fraction); higher = more viable cancer cells
Procedure: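 JC-1 labelled TNBC cells cocultured 1:1 (1,500 cells each) with CellTrace Violet stained primary or stromal fibroblasts in 384-well plates in FluoroBrite medium, treated with one of 42 anticancer drugs at 0.1, 1, 10 or 100 uM. JC-1 red fluorescence (mitochondrial integrity in cancer cells only) was read by plate reader every 8 h for 72 h. Values are normalised to each well's pre-drug value. The stock of one drug was tenfold lower, so its dose labels may be too high.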

C#Cc1cccc(Nc2ncnc3cc(OCCOC)c(OCCOC)cc23)c1 [Erlotinib]
relative JC-1 red fluorescence
Conditions	8 h	16 h	24 h	32 h	40 h	48 h	56 h	64 h	72 h
10 µM	0.959	0.897	0.866	0.836	0.787	0.755	0.734	0.691	0.685
100 µM	0.909	0.854	0.8406	0.816	0.773	0.75	0.75496	0.7218	0.718

relative JC-1 red fluorescence
Conditions	8 h	16 h	24 h	32 h	40 h	48 h	56 h	64 h	72 h
10 µM, coculture fibroblast: C12385	0.845	0.7844	0.785	0.74804	0.72	0.704	0.688	0.68	0.675
10 µM, coculture fibroblast: H6013	0.907	0.889	0.872	0.881	0.856	0.85	0.835	0.831	0.809
10 µM, coculture fibroblast: H6019	0.828	0.787	0.775	0.721	0.706	0.692	0.6756	0.652	0.642
10 µM, coculture fibroblast: H6076	0.953	0.918	0.896	0.875	0.857	0.856	0.835	0.826	0.812
10 µM, coculture fibroblast: H6231	0.907	0.86	0.823	0.7833	0.7496	0.733	0.69	0.669	0.648
10 µM, coculture fibroblast: HADF	0.932	0.94	0.929	0.934	0.921	0.907	0.896	0.896	0.858
10 µM, coculture fibroblast: HCFa	0.885	0.882	0.848	0.844	0.793	0.781	0.762	0.753	0.726
10 µM, coculture fibroblast: HCPF	0.9237	0.8853	0.8591	0.8438	0.804	0.796	0.78	0.743	0.723
10 µM, coculture fibroblast: HHSteC	0.906	0.8607	0.8316	0.835	0.801	0.791	0.781	0.773	0.745
10 µM, coculture fibroblast: HMF	0.917	0.882	0.855	0.8363	0.8034	0.80013	0.7811	0.75967	0.7511
10 µM, coculture fibroblast: HPFa	0.9857	0.97	0.965	0.95	0.943	0.939	0.911	0.903	0.873
10 µM, coculture fibroblast: HUF	0.8898	0.828	0.8446	0.773	0.7419	0.7204	0.7037	0.701	0.691
10 µM, coculture fibroblast: Hs27A	0.95	0.891	0.855	0.932	0.957	0.949	0.94	0.939	0.889
10 µM, coculture fibroblast: Hs343T	0.9515	0.904	0.894	0.891	0.845	0.834	0.814	0.784	0.772
10 µM, coculture fibroblast: WS1	0.8343	0.806	0.765	0.719	0.706	0.729	0.736	0.743	0.737
100 µM, coculture fibroblast: C12385	0.8624	0.8358	0.796	0.756	0.718	0.702	0.696	0.687	0.676
100 µM, coculture fibroblast: H6013	0.91	0.939	0.885	0.86	0.769	0.8238	0.86	0.869	0.834
100 µM, coculture fibroblast: H6019	0.79909	0.7621	0.775	0.721	0.715	0.719	0.721	0.72	0.709
100 µM, coculture fibroblast: H6076	0.9391	0.926	0.924	0.918	0.887	0.8896	0.886	0.892	0.898
100 µM, coculture fibroblast: H6231	0.93	0.902	0.889	0.8599	0.8183	0.809	0.782	0.761	0.751
100 µM, coculture fibroblast: HADF	0.729	0.811	0.8257	0.823	0.82	0.828	0.777	0.859	0.91
100 µM, coculture fibroblast: HCFa	0.945	0.964	0.9407	0.9164	0.8687	0.87	0.838	0.834	0.803
100 µM, coculture fibroblast: HCPF	0.979	0.942	0.932	0.922	0.895	0.889	0.89	0.847	0.843
100 µM, coculture fibroblast: HHSteC	0.828	0.875	0.959	0.956	0.929	0.917	0.898	0.879	0.853
100 µM, coculture fibroblast: HMF	0.865	0.858	0.946	0.924	0.883	0.871	0.862	0.84498	0.825
100 µM, coculture fibroblast: HPFa	0.969	0.939	0.84	0.852	0.966	0.941	0.902	0.887	0.853
100 µM, coculture fibroblast: HUF	0.8941	0.839	0.839	0.761	0.723	0.696	0.673	0.669	0.666
100 µM, coculture fibroblast: Hs27A	0.88	0.8341	0.772	0.867	0.793	0.798	0.754	0.8923	0.853
100 µM, coculture fibroblast: Hs343T	0.9409	0.89452	0.899	0.888	0.837	0.826	0.812	0.791	0.778
100 µM, coculture fibroblast: WS1	0.813	0.784	0.78	0.736	0.69	0.683	0.67	0.674	0.673

Values are relative to the signal before dosing, not to a vehicle control; the signal also falls without drug.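 Labels refer to human fibroblasts, largely primary: uterine (C12385, HUF), lung (H6013), bone (Hs27A), adrenal (HADF), skin (WS1), plus mammary HMF and breast cancer-associated Hs343T. Cancer lines are basal-like or mesenchymal-like triple-negative breast cancer. The paper counts as hits responses shifting over 3x the replicate standard deviation. The tissue of the other fibroblasts is not given here.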
